Measurements taken from PubChem BioAssay AID190 (DTP/NCI, 2004).
The list does not hold the whole screen: it covers a few groups of compounds. Not every dose and run of a compound is shown. T/C: endpoint of the treated group in % of that of the vehicle group. Some entries give survivors of the animals treated and no T/C: the source holds a T/C of zero for them, seemingly a mark for toxic or unscored doses. Some doses without a T/C left all or most animals alive at the check, yet need not have been tolerated: the source hardly ever lists a survival T/C far under the control, and the zero likely stands for such cases as well. Survivors were counted at the toxicity check, usually on the fifth day, unless a day is given; later deaths do not show. Schedule codes are those of the source, read here as Q, the interval in days (D) or hours (H), X, the number of doses. Marks such as (2×) say how often a value occurs here. For survival time, the PubChem record calls one and a half times the control and up active, and a quarter to a half above the control has no call in these data; cut-offs in other NCI protocols can differ. Some T/C values are followed by the survivors on the day toxicity was checked, most often the fifth; where neither a count nor a note follows, no animal had died by that day. Some doses were run more than once; their values stand side by side, smallest first.

Test system: AKR/Lw mice, AKR lymphoma ip, median survival T/C
Assay: NCI In Vivo Anticancer Drug Screen. Data for tumor model Lymphoma AKR (Transplanted) (intraperitoneal) in AKR/Lw mice
Details: T/C endpoint: median survival time, higher T/C = longer survival
Experimental: The antitumor activity of compounds was measured in mice bearing transplantable tumors. Survival or tumor size were measured and the results are expressed as the measurement made in the treated group (T) divided by the measurement made in the vehicle treated control group (C). The tumor model used in this assay is Lymphoma AKR (Transplanted) (intraperitoneal) in AKR/Lw mice

[1] = dose: 25.0 mg/kg/injection, schedule: Q01DX001 (ip), vehicle: saline
[2] = dose: 25.0 mg/kg/injection, schedule: Q01DX009 (ip), vehicle: saline
[3] = dose: 100.0 mg/kg/injection, schedule: Q01DX009 (ip), vehicle: saline
[4] = dose: 125.0 mg/kg/injection, schedule: Q04DX003 (ip), vehicle: saline

Question: With `NC(=O)c1[nH]cnc1/N=N\N(CCCl)CCCl` as the compound, how does the T/C (dose: 12.5 mg/kg/injection, schedule: Q01DX009 (ip), vehicle: Klucel (hydroxypropylcellulose) (HPC)) read?
Answer: 105 % of control

Question: And the T/C (dose: 12.5 mg/kg/injection, schedule: Q04DX003 (ip), vehicle: Klucel (hydroxypropylcellulose) (HPC))?
Answer: 105 % of control

Question: And the T/C (dose: 25.0 mg/kg/injection, schedule: Q01DX001 (ip), vehicle: Klucel (hydroxypropylcellulose) (HPC), evaluated on day 5)?
Answer: 105 % of control

Question: And the T/C (dose: 25.0 mg/kg/injection, schedule: Q01DX001 (ip), vehicle: Klucel (hydroxypropylcellulose) (HPC), evaluated on day 60)?
Answer: 105 % of control

Question: What about the T/C [1] of the same compound?
Answer: 109 % of control

Question: And the survivor count [1]?
Answer: 10 of 10

Question: And the T/C (dose: 25.0 mg/kg/injection, schedule: Q01DX009 (ip), vehicle: Klucel (hydroxypropylcellulose) (HPC))?
Answer: 100 [9 of 10 alive], 108, 123 % of control [9 of 10 alive]

Question: And the T/C [2]?
Answer: 110 % of control

Question: And the survivor count [2]?
Answer: 10 of 10

Question: And the T/C (dose: 25.0 mg/kg/injection, schedule: Q04DX003 (ip), vehicle: Klucel (hydroxypropylcellulose) (HPC), evaluated on day 30)?
Answer: 102 % of control

Question: And the T/C (dose: 25.0 mg/kg/injection, schedule: Q04DX003 (ip), vehicle: Klucel (hydroxypropylcellulose) (HPC), evaluated on day 60)?
Answer: 94 [9 of 10 alive] and 116 % of control

Question: What about the T/C (dose: 30.0 mg/kg/injection, schedule: Q04DX003 (ip), vehicle: Klucel (hydroxypropylcellulose) (HPC)) of the same compound?
Answer: 100 % of control

Question: And the T/C (dose: 32.0 mg/kg/injection, schedule: Q01DX005 (ip), vehicle: water)?
Answer: 105 % of control

Question: And the T/C (dose: 37.5 mg/kg/injection, schedule: Q01DX009 (ip), vehicle: Klucel (hydroxypropylcellulose) (HPC))?
Answer: 153 % of control [8 of 10 alive]

Question: And the T/C (dose: 50.0 mg/kg/injection, schedule: Q01DX001 (ip), vehicle: Klucel (hydroxypropylcellulose) (HPC), evaluated on day 5)?
Answer: 108 % of control

Question: And the T/C (dose: 50.0 mg/kg/injection, schedule: Q01DX001 (ip), vehicle: Klucel (hydroxypropylcellulose) (HPC), evaluated on day 60)?
Answer: 102, 108, 127 % of control

Question: And the T/C (dose: 50.0 mg/kg/injection, schedule: Q01DX001 (ip), vehicle: saline with Tween-80)?
Answer: 100 % of control

Question: And the T/C (dose: 50.0 mg/kg/injection, schedule: Q01DX001 (ip), vehicle: saline)?
Answer: 105, 107, 116 % of control

Question: What about the T/C (dose: 50.0 mg/kg/injection, schedule: Q01DX009 (ip), vehicle: Klucel (hydroxypropylcellulose) (HPC)) of the same compound?
Answer: 100 [9 of 10 alive], 114, 119 % of control

Question: And the T/C (dose: 50.0 mg/kg/injection, schedule: Q01DX009 (ip), vehicle: saline, evaluated on day 45)?
Answer: 102 and 126 % of control

Question: And the T/C (dose: 50.0 mg/kg/injection, schedule: Q01DX009 (ip), vehicle: saline, evaluated on day 60)?
Answer: 89, 110, 123 % of control [8 of 10 alive]

Question: And the T/C (dose: 50.0 mg/kg/injection, schedule: Q04DX003 (ip), vehicle: Klucel (hydroxypropylcellulose) (HPC), evaluated on day 30)?
Answer: 102 % of control [8 of 10 alive]

Question: And the T/C (dose: 50.0 mg/kg/injection, schedule: Q04DX003 (ip), vehicle: Klucel (hydroxypropylcellulose) (HPC), evaluated on day 60)?
Answer: 108, 120, 133 % of control

Question: And the survivor count (dose: 50.0 mg/kg/injection, schedule: Q04DX003 (ip), vehicle: Klucel (hydroxypropylcellulose) (HPC))?
Answer: 10 of 10

Question: And the T/C (dose: 50.0 mg/kg/injection, schedule: Q04DX003 (ip), vehicle: saline)?
Answer: 116 % of control

Question: What about the T/C (dose: 62.0 mg/kg/injection, schedule: Q04DX003 (ip), vehicle: Klucel (hydroxypropylcellulose) (HPC)) of the same compound?
Answer: 105 % of control

Question: And the T/C (dose: 62.5 mg/kg/injection, schedule: Q04DX003 (ip), vehicle: saline)?
Answer: 109, 120, 128, 134 % of control

Question: And the T/C (dose: 64.0 mg/kg/injection, schedule: Q01DX005 (ip), vehicle: water)?
Answer: 102 and 142 % of control

Question: And the T/C (dose: 75.0 mg/kg/injection, schedule: Q01DX009 (ip), vehicle: Klucel (hydroxypropylcellulose) (HPC))?
Answer: 104 % of control [9 of 10 alive]

Question: What about the T/C (dose: 75.0 mg/kg/injection, schedule: Q01DX009 (ip), vehicle: saline) of the same compound?
Answer: 100 % of control

Question: And the T/C (dose: 75.0 mg/kg/injection, schedule: Q04DX003 (ip), vehicle: Klucel (hydroxypropylcellulose) (HPC), evaluated on day 30)?
Answer: 134 % of control

Question: What about the T/C (dose: 75.0 mg/kg/injection, schedule: Q04DX003 (ip), vehicle: Klucel (hydroxypropylcellulose) (HPC), evaluated on day 60) of the same compound?
Answer: 147 % of control

Question: And the T/C (dose: 75.0 mg/kg/injection, schedule: Q04DX003 (ip), vehicle: saline)?
Answer: 111 % of control [9 of 10 alive]

Question: And the T/C (dose: 85.0 mg/kg/injection, schedule: Q01DX001 (ip), vehicle: Klucel (hydroxypropylcellulose) (HPC), evaluated on day 5)?
Answer: 97 % of control

Question: And the T/C (dose: 85.0 mg/kg/injection, schedule: Q01DX001 (ip), vehicle: Klucel (hydroxypropylcellulose) (HPC), evaluated on day 60)?
Answer: 97 % of control

Question: What about the T/C (dose: 100.0 mg/kg/injection, schedule: Q01DX001 (ip), vehicle: Klucel (hydroxypropylcellulose) (HPC), evaluated on day 5) of the same compound?
Answer: 117 % of control

Question: What about the T/C (dose: 100.0 mg/kg/injection, schedule: Q01DX001 (ip), vehicle: Klucel (hydroxypropylcellulose) (HPC), evaluated on day 60) of the same compound?
Answer: 100, 117 (2×), 136 % of control

Question: What about the T/C (dose: 100.0 mg/kg/injection, schedule: Q01DX001 (ip), vehicle: saline with Tween-80) of the same compound?
Answer: 108 % of control

Question: What about the T/C (dose: 100.0 mg/kg/injection, schedule: Q01DX001 (ip), vehicle: saline, evaluated on day 45) of the same compound?
Answer: 113 % of control

Question: What about the T/C (dose: 100.0 mg/kg/injection, schedule: Q01DX001 (ip), vehicle: saline, evaluated on day 60) of the same compound?
Answer: 109, 110, 121, 123, 130 % of control

Question: And the T/C (dose: 100.0 mg/kg/injection, schedule: Q01DX009 (ip), vehicle: Klucel (hydroxypropylcellulose) (HPC))?
Answer: 89 and 103 % of control

Question: And the T/C [3]?
Answer: 102 and 121 % of control

Question: What about the survivor count [3] of the same compound?
Answer: 10 of 10 (2×)

Question: What about the T/C (dose: 100.0 mg/kg/injection, schedule: Q04DX003 (ip), vehicle: Klucel (hydroxypropylcellulose) (HPC), evaluated on day 30) of the same compound?
Answer: 89 % of control [9 of 10 alive]

Question: What about the T/C (dose: 100.0 mg/kg/injection, schedule: Q04DX003 (ip), vehicle: Klucel (hydroxypropylcellulose) (HPC), evaluated on day 60) of the same compound?
Answer: 90, 91, 120, 136, 141 % of control

Question: And the T/C (dose: 120.0 mg/kg/injection, schedule: Q01DX001 (ip), vehicle: Klucel (hydroxypropylcellulose) (HPC), evaluated on day 5)?
Answer: 138 % of control

Question: What about the T/C (dose: 120.0 mg/kg/injection, schedule: Q01DX001 (ip), vehicle: Klucel (hydroxypropylcellulose) (HPC), evaluated on day 60) of the same compound?
Answer: 138 % of control

Question: And the survivor count (dose: 125.0 mg/kg/injection, schedule: Q04DX003 (ip), vehicle: Klucel (hydroxypropylcellulose) (HPC))?
Answer: 10 of 10

Question: What about the T/C [4] of the same compound?
Answer: 122 [9 of 10 alive], 127, 135 % of control

Question: And the survivor count [4]?
Answer: 10 of 10

Question: What about the T/C (dose: 128.0 mg/kg/injection, schedule: Q01DX005 (ip), vehicle: water) of the same compound?
Answer: 92 and 142 % of control [9 of 10 alive]

Question: And the T/C (dose: 130.0 mg/kg/injection, schedule: Q01DX001 (ip), vehicle: Klucel (hydroxypropylcellulose) (HPC), evaluated on day 5)?
Answer: 126 % of control
